PubChem BioAssay AID1259308, NCATS, 2017
This is an unselected part of about 59,000 deposited reagents. About 1,510 of them (2.6%) were called active. 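Calls use total luciferase alone and ignore viability, so some active siRNAs may act by altering cell number.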 Unmarked entries are inactive. Reagents against one gene are numbered here. Not all columns of the deposit are shown.

Purpose: 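Candidate targets for better recombinant protein yield in mammalian cells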 (primary screen)
System: human HEK293 embryonic kidney cells stably expressing firefly luciferase (HEK-CMV-Luc2-Hygro)
Reagent: single siRNA against human genes, 0.8 pmol siRNA per well
Duration: 72 h
Measurement: 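Reporter luminescence and viable-cell signal on separate replicate plates, given as percent of non-targeting control and median/MAD z-scores, plus per-cell luciferase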
Reading the numbers: total luciferase, z-score and total luciferase, % of control: higher = more reporter protein produced
Call rule: 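An siRNA counts as active if its total luciferase robust z-score exceeds 3; genes with two or more such siRNAs out of three were retested with fresh siRNAs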
Meaning of the calls: active = raised luciferase; inactive = no rise

target	reagent	total luciferase, z-score	total luciferase, % of control
MFAP3L (microfibril associated protein 3 like)	1	-1.81	45.9
MFAP3L (microfibril associated protein 3 like)	2	-1.22	57.7
MFAP3L (microfibril associated protein 3 like)	3	-1.98	42.4
EAF1 (ELL associated factor 1)	1	-1.46	52.8
EAF1 (ELL associated factor 1)	2	-1.09	60.2
EAF1 (ELL associated factor 1)	3	-1.4	54.1
ROCK1 (Rho associated coiled-coil containing protein kinase 1)	1	-0.502	71.9
ROCK1 (Rho associated coiled-coil containing protein kinase 1)	2	0.0902	83.7
ROCK1 (Rho associated coiled-coil containing protein kinase 1)	3	-0.795	66.1
TLE3 (TLE family member 3, transcriptional corepressor)	1	-0.119	79.5
TLE3 (TLE family member 3, transcriptional corepressor)	2	-0.179	78.3
TLE3 (TLE family member 3, transcriptional corepressor)	3	1.68	115
TNFSF13B (TNF superfamily member 13b)	1	0.0902	83.7
TNFSF13B (TNF superfamily member 13b)	2	-1.37	54.6
TNFSF13B (TNF superfamily member 13b)	3	-1.14	59.3
GPATCH2 (G-patch domain containing 2)	1	-0.614	69.7
GPATCH2 (G-patch domain containing 2)	2	-0.499	72
GPATCH2 (G-patch domain containing 2)	3	0.307	88
ERVFRD-1 (endogenous retrovirus group FRD member 1, envelope)	1	0.476	91.4
ERVFRD-1 (endogenous retrovirus group FRD member 1, envelope)	2	0.878	99.4
ERVFRD-1 (endogenous retrovirus group FRD member 1, envelope)	3	0.396	89.8
UPB1 (beta-ureidopropionase 1)	1	0.25	86.9
UPB1 (beta-ureidopropionase 1)	2	0.299	87.8
UPB1 (beta-ureidopropionase 1)	3	0.0175	82.2
PRICKLE2 (prickle planar cell polarity protein 2)	1	0.793	97.7
PRICKLE2 (prickle planar cell polarity protein 2)	2	0.909	100
PRICKLE2 (prickle planar cell polarity protein 2)	3	-0.963	62.7
MRTFA (myocardin related transcription factor A)	1	5.54 (active)	192
MRTFA (myocardin related transcription factor A)	2	1.21	106
MRTFA (myocardin related transcription factor A)	3	0.318	88.2
IL1RAP (interleukin 1 receptor accessory protein)	1	-0.5	71.9
IL1RAP (interleukin 1 receptor accessory protein)	2	-0.0691	80.5
IL1RAP (interleukin 1 receptor accessory protein)	3	1.01	102

Records listed so far called active (1):
target	reagent	total luciferase, z-score	total luciferase, % of control
MRTFA (myocardin related transcription factor A)	1	5.54 (active)	192

The listing continues.
target	reagent	total luciferase, z-score	total luciferase, % of control
WDR53 (WD repeat domain 53)	1	-2.01	41.9
WDR53 (WD repeat domain 53)	2	-1.91	43.9
WDR53 (WD repeat domain 53)	3	-0.136	79.2
HMCN2 (hemicentin 2)	1	-1.33	55.4
HMCN2 (hemicentin 2)	2	-1.52	51.7
HMCN2 (hemicentin 2)	3	-1.51	51.8
HMCN2 (hemicentin 2)	4	1.34	109
HMCN2 (hemicentin 2)	5	-0.0947	80
HMCN2 (hemicentin 2)	6	0.394	89.7
HMCN2 (hemicentin 2)	7	1.67	115
HMCN2 (hemicentin 2)	8	-0.517	71.6
HMCN2 (hemicentin 2)	9	3.11 (active)	144
ETV6 (ETS variant transcription factor 6)	1	-2.03	41.6
ETV6 (ETS variant transcription factor 6)	2	0.165	85.2
ETV6 (ETS variant transcription factor 6)	3	-0.0168	81.6
ENOX1 (ecto-NOX disulfide-thiol exchanger 1)	1	0.371	89.3
ENOX1 (ecto-NOX disulfide-thiol exchanger 1)	2	-1.35	55.1
ENOX1 (ecto-NOX disulfide-thiol exchanger 1)	3	-0.299	75.9
FOSL2 (FOS like 2, AP-1 transcription factor subunit)	1	-0.406	73.8
FOSL2 (FOS like 2, AP-1 transcription factor subunit)	2	-1.43	53.5
FOSL2 (FOS like 2, AP-1 transcription factor subunit)	3	-0.502	71.9
OR4D6 (olfactory receptor family 4 subfamily D member 6)	1	0.914	100
OR4D6 (olfactory receptor family 4 subfamily D member 6)	2	-1.01	61.7
OR4D6 (olfactory receptor family 4 subfamily D member 6)	3	-0.399	73.9
